Measurements: patent publication US20100160326A1, “PEST CONTROL AGENT CONTAINING NOVEL PYRIDYL-METHANAMINE DERIVATIVE OR SALT THEREOF” (ISHIHARA SANGYO KAISHA, LTD., priority 2006, published 2010)
Some of these results come from one statement about several compounds together.

Key:
[1] = tested on: Green Peach Aphid (Myzus persicae); experiment: Test on controlling effects against green peach aphid (leaf dip); type: in vivo; details: 800 ppm, Japanese radish leaf dipped about 10 seconds, first instar nymphs, counted 5 days after the treatment, 25° C.
From the text: Test on Controlling Effects Against Green Peach Aphid (Myzus persicae)
Mortality (%)=(1−(number of survived insects/number of treated insects))×100

[2] = tested on: Two-Spotted Spider Mite (Tetranychus urticae); experiment: Test on adults of two-spotted spider mite (kidney bean leaf dip); type: in vivo; details: 800 ppm, adults dipped together with kidney bean leaf, second or third day after the treatment, 25° C.
From the text: Test on Adults of Two-Spotted Spider Mite (Tetranychus urticae)
Mortality of adults (%)=(Number of dead two-spotted spider mites/Number of treated two-spotted spider mites)×100

Row | Compound | mortality [1] | mortality of adults [2]
1 | COC(=O)C(C(C)C)N(Cc1ccccn1)c1cc(C(F)(F)F)c(Cl)c(Cl)n1 (stereo not shown) [compound 226] | at least 90% | at least 90%
2 | FC(F)(F)c1cc(N(Cc2ccccn2)Cc2ccccn2)nc(Cl)c1Cl [compound 19] |  | at least 90%
3 | O=[N+]([O-])c1c(Cl)nc(NCc2ccccn2)c(Cl)c1C(F)(F)F [compound 34] | at least 90% | 
4 | CSc1c(C(F)(F)F)cc(N(Cc2ccccn2)Cc2ccccn2)nc1C(F)(F)F [compound 134] | at least 90% | at least 90%
5 | FC(F)(F)c1cc(N(Cc2ccccn2)Cc2ccccn2)nc(C(F)(F)F)c1 [compound 110] |  | at least 90%
6 | CC(=O)c1c(C(F)(F)F)cc(NCc2ccccn2)nc1Cl [compound 27] | at least 90% | at least 90%
7 | Cn1ccc(CN(Cc2ccccn2)c2cc(C(F)(F)F)c(Cl)c(Cl)n2)n1 [compound 152] | at least 90% | at least 90%
8 | COc1nc(N(Cc2ccccn2)Cc2ccccn2)cc(C(F)(F)F)c1C#N [compound 74] |  | at least 90%
9 | FC(F)(F)c1cnc(N(Cc2ccccn2)Cc2ccccn2)cc1C(F)(F)F [compound 17] |  | at least 90%
10 | Cc1c(C(F)(F)F)cc(N(Cc2ccccn2)Cc2ccccn2)nc1C(F)(F)F [compound 171] |  | at least 90%
11 | FC(F)(F)c1cc(N(CCc2ccccn2)Cc2ccccn2)nc(Cl)c1Cl [compound 73] |  | at least 90%
12 | O=[N+]([O-])c1c(C(F)(F)F)cc(N(Cc2ccccn2)Cc2ccccn2)nc1Cl [compound 35] | at least 90% | at least 90%
13 | N#Cc1c(C(F)(F)F)cc(N(Cc2ccccn2)Cc2ccccn2)nc1-c1ccccc1 [compound 105] | at least 90% | at least 90%
14 | Fc1nc(N(Cc2ccccn2)Cc2ccccn2)c(F)c(C(F)(F)F)c1F [compound 104] | at least 90% | at least 90%
15 | FC(F)(F)c1cc(N(CCN2CCOCC2)Cc2ccccn2)nc(Cl)c1Cl [compound 64] | at least 90% | at least 90%
16 | N#Cc1c(Cl)nc(NCc2ccccn2)c(F)c1C(F)(F)F [compound 106] | at least 90% | at least 90%
17 | N#Cc1c(C(F)(F)F)cc(N(Cc2ccccn2)CC(F)(F)F)nc1Cl [compound 199] |  | at least 90%
18 | FC(F)(F)c1c(Cl)c(Cl)nc(NCc2ccccn2)c1Cl [Compound No. 1] |  | at least 90%
19 | CC(C)(Nc1cc(C(F)(F)F)c(C#N)c(Cl)n1)c1ccccn1 [compound 284] | at least 90% | at least 90%
20 | O=C(C(Cl)Cl)N(Cc1ccccn1)c1cc(C(F)(F)F)c(Cl)c(Cl)n1 [compound 271] | at least 90% | at least 90%
21 | Cc1nc(NCc2ccccn2)cc(C(F)(F)F)c1Cl [compound 101] | at least 90% | at least 90%
22 | C=CCc1c(C(F)(F)F)cc(N(Cc2ccccn2)Cc2ccccn2)nc1Cl [compound 196] |  | at least 90%
23 | Cn1cccc1CN(Cc1ccccn1)c1cc(C(F)(F)F)cc(Cl)n1 [compound 264] | at least 90% | 
24 | FC(F)(F)c1c(Cl)cnc(NCc2ccccn2)c1Cl [Compound No. 2] |  | at least 90%
25 | N#Cc1c(C(F)(F)F)cc(N(Cc2ccccn2)Cc2cccc(N3CCCCC3)n2)nc1Cl [compound 325] |  | at least 90%
26 | O=C(c1cnccc1C(F)(F)F)N(Cc1ccccn1)c1cc(C(F)(F)F)c(Cl)c(Cl)n1 [compound 91] | at least 90% | 

Row | Compound | mortality [1] | mortality of adults [2]
27 | COc1c(C)cnc(CN(Cc2ccccn2)c2cc(C(F)(F)F)c(Cl)c(Cl)n2)c1C [compound 307] | at least 90% | 
28 | C=CCc1c(C(F)(F)F)cc(Cl)nc1NCc1ccccn1 [compound 187] |  | at least 90%
29 | O=C(c1ccccc1)N(Cc1ccccn1)c1cc(C(F)(F)F)c(Cl)c(Cl)n1 [compound 272] |  | at least 90%
30 | FC(F)(Cl)c1c(Cl)c(Cl)nc(NCc2ccccn2)c1Cl [compound 40] | at least 90% | 
31 | CC(Nc1nc(Cl)c(Cl)c(C(F)(F)F)c1Cl)c1ccccn1 (stereo not shown) [compound 16] |  | at least 90%
32 | COCOC(CN(Cc1ccccn1)c1cc(C(F)(F)F)c(Cl)c(Cl)n1)c1cccnc1 (stereo not shown) [compound 242] |  | at least 90%
33 | O=C(c1c(C(F)(F)F)cc(N(Cc2ccccn2)Cc2ccccn2)nc1Cl)C(F)(F)F [compound 193] |  | at least 90%
34 | CN(C)c1nc(N(Cc2ccccn2)Cc2ccccn2)cc(C(F)(F)F)c1Cl [compound 81] | at least 90% | 
35 | N#Cc1c(C(F)(F)F)cc(N(Cc2ccc(N3CCCC3)nc2)Cc2ccccn2)nc1Cl [compound 324] |  | at least 90%
36 | N#CN(Cc1ccccn1)c1cc(C(F)(F)F)c(Cl)c(Cl)n1 [compound 241] |  | at least 90%
37 | FC(F)(F)c1cnc(N(Cc2ccccn2)N=Cc2ccccn2)cc1C(F)(F)F [compound 136] | at least 90% | 
38 | O=CCN(Cc1ccccn1)c1cc(C(F)(F)F)c(Cl)c(Cl)n1 [compound 236] |  | at least 90%
39 | FC(F)c1c(C(F)(F)F)cc(N(Cc2ccccn2)Cc2ccccn2)nc1Br [compound 192] |  | at least 90%
40 | FC(F)(F)c1cc(N(Cc2ccccn2)Cc2ccccn2)nc(C(F)(F)F)c1Br [compound 133] |  | at least 90%
41 | FC(F)(F)c1c(Cl)c(Cl)nc(N(Cc2ccccn2)Cc2ccccn2)c1Cl [compound 4] |  | at least 90%
42 | COCOCc1cccc(CN(Cc2ccccn2)c2cc(C(F)(F)F)c(Cl)c(Cl)n2)n1 [compound 139] | at least 90% | 
43 | FC(F)(F)c1cc(NCc2ccccn2)ncc1Cl [Compound No. 3] |  | at least 90%
44 | CC(=O)c1c(C(F)(F)F)cc(Cl)nc1N(Cc1ccccn1)Cc1ccccn1 [compound 32] | at least 90% | 
45 | N#Cc1c(C(F)(F)F)cc(N(Cc2ccccn2)Cc2ccccn2)nc1F [compound 72] |  | at least 90%
46 | CC(O)CN(Cc1ccccn1)c1cc(C(F)(F)F)c(Cl)c(Cl)n1 (racemic) [compound 203] | at least 90% | 
47 | FC(F)(F)c1cc(C(F)(F)F)c(Cl)c(NCc2ccccn2)n1 [compound 181] |  | at least 90%
48 | CCOc1nc(NCc2ccccn2)c(Cl)c(C(F)(F)F)c1Cl [compound 123] | at least 90% | 
49 | FC(F)(F)c1cc(Cl)nc(N(Cc2ccccn2)Cc2ccccn2)c1Cl [compound 38] | at least 90% | 
50 | FC(F)(F)c1nc(NCc2ccccn2)c(Br)c(C(F)(F)F)c1Cl [compound 191] |  | at least 90%
51 | OCc1cccc(CN(Cc2ccccn2)c2cc(C(F)(F)F)c(Cl)c(Cl)n2)n1 [compound 140] | at least 90% | 
52 | CC(C)(CN(Cc1ccccn1)c1cc(C(F)(F)F)c(Cl)c(Cl)n1)c1ccccn1 [compound 142] | at least 90% | 
